Source: the supplement of paper PMC9135407
Where “and” joins values, the source holds several entries; their conditions need not be identical. Equal values may be shown once. Where a name gives a salt, the structure may show the parent alone. ± gives the standard deviation of the averaged measurements. The list shows a part of the results. Plates or batches differ in their baseline, so values are only roughly comparable.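 Culture-activated primary human stellate myofibroblasts, where regained lipid droplets signal inactivation. Value: share of Hoechst-counted cells above a per-plate Bodipy cutoff, in duplicate wells, with DMSO negative and nortriptyline positive controls on each plate. Hits: a control-normalized score above the plate's top-tenth-percentile nortriptyline wells, or one of a plate's three best wells. Final well concentrations are not given.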

System: primary human hepatic stellate cells (donor 1)
Experiment: percent Bodipy-positive cells; higher = more lipid droplet accumulation
Conditions: 48 h
[1] = library stock concentration: 10 mM
[2] = library stock concentration: 3.33 mM
[3] = library stock concentration: 1 mM
[4] = library stock concentration: 80 uM
[5] = library stock concentration: 400 uM
[6] = library stock concentration: 2 mM
[7] = library stock concentration: 4.9 mM

For C=COCC(F)(F)F, the “percent Bodipy-positive cells” value [1] was 39.5 ± 4.8%.

Cc1oc(=O)oc1CN1CCN(c2cc3c(cc2F)c(=O)c(C(=O)O)c2n3C(C)S2)CC1 (centres undefined) was tested, and the “percent Bodipy-positive cells” value [1] was 19.9 ± 3.3%.

With C/C(O)=C(\C#N)C(=O)Nc1ccc(C(F)(F)F)cc1 [Teriflunomide] the “percent Bodipy-positive cells” value [2] was 6.48 ± 1.8% and the “percent Bodipy-positive cells” value [1] was 48.1 ± 6.2%.

In the case of COc1nc(C)cnc1NS(=O)(=O)c1cccnc1-c1ccc(-c2nnco2)cc1 [Zibotentan (ZD4054)], the “percent Bodipy-positive cells” value [2] is reported as 12.4 ± 3.5% and the “percent Bodipy-positive cells” value [1] is reported as 15.2 ± 4%.

For Nc1ccccc1NC(=O)CCCCCCC(=O)Nc1ccccc1, the “percent Bodipy-positive cells” value [3] was 11 ± 2.2%.

Cn1cc(C2=C(c3cn(CCCSC(=N)N)c4ccccc34)C(=O)NC2=O)c2ccccc21 [Ro 31-8220 mesylate] was tested, and the “percent Bodipy-positive cells” value [1] was 46.7 ± 4.6%.

For Cn1cc(C2=C(c3cn(CCCSC(=N)N)c4ccccc34)C(=O)NC2=O)c2ccccc21 [Bisindolylmaleimide IX (mesylate)], the “percent Bodipy-positive cells” value [3] was 17.7 ± 4.4%.

With Cn1cc(C2=C(c3cn(CCCSC(=N)N)c4ccccc34)C(=O)NC2=O)c2ccccc21 the “percent Bodipy-positive cells” value [4] was 15.2 ± 1.1%, the “percent Bodipy-positive cells” value [5] was 26.4 ± 4% and the “percent Bodipy-positive cells” value [6] was 21 ± 5.3%. For the same compound, the “percent Bodipy-positive cells” value [2] was 10.4 ± 4.2%, the “percent Bodipy-positive cells” value [1] was 95.8 ± 4.2% and the “percent Bodipy-positive cells” value (library stock concentration: 10.9 mM) was 99.51 ± 0.69%.

In the case of Cn1cc(C2=C(c3cn(CCCSC(=N)N)c4ccccc34)C(=O)NC2=O)c2ccccc21 [Ro 31-8220 Mesylate], the “percent Bodipy-positive cells” value [2] is reported as 21.3 ± 1.9% and the “percent Bodipy-positive cells” value [1] is reported as 97.8 ± 2.5%.

C[C@@H]1O[C@@H](O[C@H]2[C@H](Oc3cc(O)c4c(c3)O[C@H](c3ccc(O)cc3)CC4=O)O[C@H](CO)[C@@H](O)[C@@H]2O)[C@H](O)[C@H](O)[C@H]1O [Naringin hydrate] was tested, and the “percent Bodipy-positive cells” value was 28.9 ± 11%.

In the case of C[C@@H]1O[C@@H](O[C@H]2[C@H](Oc3cc(O)c4c(c3)O[C@H](c3ccc(O)cc3)CC4=O)O[C@H](CO)[C@@H](O)[C@@H]2O)[C@H](O)[C@H](O)[C@H]1O [Naringin], the “percent Bodipy-positive cells” value [2] is reported as 6.39 ± 1.1% and the “percent Bodipy-positive cells” value [1] is reported as 19.9 ± 17%.

N[C@@H](CC(=O)N1CCn2c(nnc2C(F)(F)F)C1)Cc1cc(F)c(F)cc1F [Sitagliptin] was tested, and the “percent Bodipy-positive cells” value [7] was 19.7 ± 13%.

N[C@@H](CC(=O)N1CCn2c(nnc2C(F)(F)F)C1)Cc1cc(F)c(F)cc1F [Sitagliptin phosphate monohydrate] was tested, and the “percent Bodipy-positive cells” value [2] was 8.29 ± 2.8% and the “percent Bodipy-positive cells” value [1] was 13.11 ± 0.028%.

With CC1(C)C(=O)N(CCN2CCC(C(=O)c3ccc(F)cc3)CC2)c2ccccc21 [LY-310,762 hydrochloride] the “percent Bodipy-positive cells” value [1] was 48.4 ± 7.9%.

CC(C)(C)OC(=O)N[C@H]1CCCCC/C=C\[C@@H]2C[C@@]2(C(=O)NS(=O)(=O)C2CC2)NC(=O)[C@@H]2C[C@@H](OC(=O)N3Cc4cccc(F)c4C3)CN2C1=O [Danoprevir (ITMN-191)] was tested, and the “percent Bodipy-positive cells” value [2] was 4.36 ± 2.2% and the “percent Bodipy-positive cells” value [1] was 16.7 ± 3.3%.

In the case of CCN(CC)CC1CCCCN1CC(=O)N1c2ccccc2C(=O)Nc2cccnc21 (centres undefined), the “percent Bodipy-positive cells” value [1] is reported as 5.57% and 8.04%.

CC#CCC(C)[C@H](O)/C=C/[C@@H]1[C@H]2C/C(=C/CCCC(=O)O)C[C@H]2C[C@H]1O (stereo partly drawn) [5-cis Iloprost] was tested, and the “percent Bodipy-positive cells” value [3] was 20.3 ± 2.1%.

With NC(=O)Nc1sc(-c2ccc(F)cc2)cc1C(N)=O the “percent Bodipy-positive cells” value [4] was 12.7 ± 4%, the “percent Bodipy-positive cells” value [5] was 10.8 ± 5% and the “percent Bodipy-positive cells” value [6] was 12.5 ± 2.3%. The “percent Bodipy-positive cells” value [2] was 13.7 ± 7.5% and the “percent Bodipy-positive cells” value [1] was 17.9% and 9.41% and 6.7%.

In the case of N=C(N)c1ccc(N=NNc2ccc(C(=N)N)cc2)cc1 [Diminazene Aceturate], the “percent Bodipy-positive cells” value [2] is reported as 5.07 ± 2.5% and the “percent Bodipy-positive cells” value [1] is reported as 26.3 ± 12%.

For N=C(N)c1ccc(N=NNc2ccc(C(=N)N)cc2)cc1, the “percent Bodipy-positive cells” value [1] was 43.7 ± 2.6%.

In the case of O=C(O)CCC/C=C\C[C@@H]1C(=O)C[C@@H](O)[C@@H]1/C=C/[C@@H](O)CC1CCCCC1 [8-iso-16-cyclohexyl-tetranor Prostaglandin E2], the “percent Bodipy-positive cells” value [3] is reported as 11.7 ± 3.6%.

For C[C@H](CCC(=O)O)[C@H]1CC[C@H]2[C@@H]3C[C@H](O)[C@@H]4C[C@H](O)CC[C@]4(C)[C@H]3CC[C@]12C [Hyodeoxycholic acid (HDCA)], the “percent Bodipy-positive cells” value [2] was 7.02 ± 2.6% and the “percent Bodipy-positive cells” value [1] was 13.4 ± 3.2%.

In the case of COc1cc2c(cc1O)[C@@H](Cc1ccc(O)cc1)[N+](C)(C)CC2 [Magnocurarine iodide], the “percent Bodipy-positive cells” value [1] is reported as 21.2 ± 3.3%.

With O=C(Nc1ccccc1)OCC(CN1CCCCC1)OC(=O)Nc1ccccc1 (centres undefined) [Diperodon hydrochloride] the “percent Bodipy-positive cells” value was 73.6 ± 4.8%.

COc1cc2ncnc(Sc3nnc(C)s3)c2cc1OC was tested, and the “percent Bodipy-positive cells” value [1] was 96 ± 2.5%.

With CO/N=C(\C(=O)N[C@@H]1C(=O)N2C(C(=O)O)=C(CSC(=O)c3ccco3)CS[C@H]12)c1csc(N)n1 the “percent Bodipy-positive cells” value [1] was 28.1 ± 7.2%.

For CO/N=C(\C(=O)N[C@@H]1C(=O)N2C(C(=O)O)=C(CSC(=O)c3ccco3)CS[C@H]12)c1csc(N)n1 [Ceftiofur HCl], the “percent Bodipy-positive cells” value [2] was 6.1 ± 0.44% and the “percent Bodipy-positive cells” value [1] was 7.73 ± 0.44%.

In the case of N[C@@H]1CCN(O)C1=O, the “percent Bodipy-positive cells” value [1] is reported as 7.89 ± 0.43%.

In the case of CC(=O)Nc1ccc(OCC(O)CNC(C)C)cc1 (centres undefined) [Practolol], the “percent Bodipy-positive cells” value is reported as 27.8 ± 2% and the “percent Bodipy-positive cells” value (library stock concentration: 7.5 mM) is reported as 7.78 ± 2.8%.

O=C1NN(C(=O)Nc2ccc(Br)cc2)[C@@H](c2ccccc2)[C@@H]1c1ccccc1 was tested, and the “percent Bodipy-positive cells” value [1] was 11.2 ± 1.1%.

C#CCCCCCCCCCCCCCCCC(=O)O [17-Octadecynoic Acid] was tested, and the “percent Bodipy-positive cells” value [3] was 7.4 ± 0.19%.

With C#CCCCCCCCCCCCCCCCC(=O)O [17-Octadecynoic acid] the “percent Bodipy-positive cells” value [3] was 6.28 ± 2.6%.

With CN1[C@@H]2CC[C@H]1C[C@@H](OC(c1ccccc1)c1ccccc1)C2 [Cogentin Mesylate] the “percent Bodipy-positive cells” value [1] was 90.6 ± 2.4%.

CN1[C@@H]2CC[C@H]1C[C@@H](OC(c1ccccc1)c1ccccc1)C2 [Benztropine] was tested, and the “percent Bodipy-positive cells” value [7] was 18.3 ± 4.4% and the “percent Bodipy-positive cells” value [1] was 51.3 ± 6%.

CN1[C@@H]2CC[C@H]1C[C@@H](OC(c1ccccc1)c1ccccc1)C2 [Benztropine mesylate] was tested, and the “percent Bodipy-positive cells” value [2] was 26.7 ± 5.7%.

In the case of C=C1C(=CC=C2CCC[C@]3(C)[C@@H]([C@H](C)CCCC(C)C)CC[C@@H]23)C[C@@H](O)C[C@@H]1O [Alfacalcidol], the “percent Bodipy-positive cells” value [1] is reported as 99.14 ± 0.42%.

For C[C@@H]1O[C@@H](OC[C@H]2O[C@@H](Oc3c(-c4ccc(O)c(O)c4)oc4cc(O)cc(O)c4c3=O)[C@H](O)[C@@H](O)[C@@H]2O)[C@H](O)[C@H](O)[C@H]1O [Rutin], the “percent Bodipy-positive cells” value [2] was 8.12 ± 1.7% and the “percent Bodipy-positive cells” value [1] was 11.7 ± 2.2%.

For C[C@@H]1O[C@@H](OC[C@H]2O[C@@H](Oc3c(-c4ccc(O)c(O)c4)oc4cc(O)cc(O)c4c3=O)[C@H](O)[C@@H](O)[C@@H]2O)[C@H](O)[C@H](O)[C@H]1O, the “percent Bodipy-positive cells” value [1] was 10.6 ± 5.9%.

With CCCCC[C@H](O)CC[C@@H]1[C@H]2Cc3cccc(OCC(=O)O)c3C[C@H]2C[C@H]1O [Treprostinil] the “percent Bodipy-positive cells” value [3] was 21.4 ± 2.1%.

With Cc1nn(C)c(COc2ccc(N3CCN(S(=O)(=O)N(C)C)CC3)cc2)c1-c1cccc2c(CCCOc3cccc4ccccc34)c(C(=O)O)n(CCN3CCOCC3)c12 the “percent Bodipy-positive cells” value [4] was 9.74 ± 5.5%, the “percent Bodipy-positive cells” value [5] was 7.54 ± 0.93% and the “percent Bodipy-positive cells” value [6] was 8.56 ± 2.8%. For the same compound, the “percent Bodipy-positive cells” value [1] was 25.9 ± 9.8%.

With CCCC(=O)Nc1ccc(OCC(O)CNC(C)C)c(C(C)=O)c1 (centres undefined) [Acebutolol hydrochloride] the “percent Bodipy-positive cells” value was 25.3 ± 7.4%, the “percent Bodipy-positive cells” value (library stock concentration: 5.4 mM) was 13 ± 5.1% and the “percent Bodipy-positive cells” value [1] was 16.9 ± 11%.

For CCCC(=O)Nc1ccc(OCC(O)CNC(C)C)c(C(C)=O)c1 (centres undefined) [Acebutolol HCl], the “percent Bodipy-positive cells” value [2] was 8.29 ± 1.7% and the “percent Bodipy-positive cells” value [1] was 22.4 ± 5.8%.
